Test results taken from patent publication US20120295907A1, “INSECTICIDAL COMPOUNDS” (SYNGENTA CROP PROTECTION, LLC, priority 2009, published 2012).
Some of these results come from one statement about several compounds together. At least one structure is not confirmed: it was looked up by name or label, or the drawing left a doubt.

Assays:
Type in all cases: in vivo
Spodoptera littoralis = Spodoptera littoralis (Egyptian Cotton Leafworm) cotton leaf disc spray test; details: 200 ppm spray on cotton leaf discs, L1 larvae, mortality, feeding behavior, growth regulation 3 DAT
Heliothis virescens = Heliothis virescens (Tobacco Budworm) egg test on artificial diet; details: 200 ppm (concentration in well 18 ppm), eggs 0-24 h old on artificial diet, 4 days; egg mortality, larval mortality, growth regulation
Plutella xylostella = Plutella xylostella (Diamond Back Moth) artificial diet MTP test; details: 200 ppm (concentration in well 18 ppm), L2 larvae, 6 days, larval mortality, growth regulation
Diabrotica balteata = Diabrotica balteata (Corn Root Worm) artificial diet MTP test; details: 200 ppm (concentration in well 18 ppm), L2 larvae, 5 days, larval mortality, growth regulation

SMILES | control of Spodoptera littoralis (Spodoptera littoralis) | control of Heliothis virescens (Heliothis virescens) | control of Plutella xylostella (Plutella xylostella) | control of Diabrotica balteata (Diabrotica balteata)
COc1c(NC(=O)c2ccccc2F)cccc1C(=O)Nc1c(Cl)cc(C(F)(C(F)(F)F)C(F)(F)C(F)(F)F)cc1Br (centres unmarked) [B3] | at least 80% | at least 80% | at least 80% | at least 80%
COc1c(NC(=O)c2ccc(F)c(C(F)(F)F)c2)cccc1C(=O)Nc1c(Cl)cc(C(F)(C(F)(F)F)C(F)(F)C(F)(F)F)cc1Br (centres unmarked) [B14] | at least 80% |  | at least 80% | 
COc1c(NC(=O)c2ccc3c(c2)OCCCO3)cccc1C(=O)Nc1c(Cl)cc(C(F)(C(F)(F)F)C(F)(F)C(F)(F)F)cc1Br (centres unmarked) [B32] | at least 80% | at least 80% | at least 80% | at least 80%
COC(=O)c1c(SC)ccc(C(=O)Nc2cccc(C(=O)Nc3c(Cl)cc(C(F)(C(F)(F)F)C(F)(F)C(F)(F)F)cc3Br)c2OC)c1C (centres unmarked) [B99] | at least 80% | at least 80% | at least 80% | 
COc1cc(C(=O)Nc2cccc(C(=O)Nc3c(Cl)cc(C(F)(C(F)(F)F)C(F)(F)C(F)(F)F)cc3Br)c2OC)ccc1[N+](=O)[O-] (centres unmarked) [B207] | at least 80% | at least 80% | at least 80% | 
COc1c(NC(=O)c2ccc(F)c(C(F)(F)F)c2)cccc1C(=O)Nc1c(Cl)cc(C(F)(C(F)(F)F)C(F)(F)C(F)(F)F)cc1Cl (centres unmarked) [C14] | at least 80% | at least 80% |  | 
COc1c(NC(=O)c2cccc(Cl)c2Cl)cccc1C(=O)Nc1c(Cl)cc(C(F)(C(F)(F)F)C(F)(F)C(F)(F)F)cc1Cl (centres unmarked) [C27] | at least 80% | at least 80% | at least 80% | at least 80%
COc1c(NC(=O)c2cccc([N+](=O)[O-])c2)cccc1C(=O)Nc1c(Cl)cc(C(F)(C(F)(F)F)C(F)(F)C(F)(F)F)cc1Cl (centres unmarked) [C28] | at least 80% | at least 80% | at least 80% | at least 80%
COc1c(NC(=O)c2c(C)noc2C)cccc1C(=O)Nc1c(Cl)cc(C(F)(C(F)(F)F)C(F)(F)C(F)(F)F)cc1Cl (centres unmarked) [C30] | at least 80% |  |  | 
COc1c(NC(=O)c2ccc([N+](=O)[O-])cc2F)cccc1C(=O)Nc1c(Cl)cc(C(F)(C(F)(F)F)C(F)(F)C(F)(F)F)cc1Cl (centres unmarked) [C36] | at least 80% |  |  | at least 80%
COc1c(C(=O)Nc2c(Cl)cc(C(F)(C(F)(F)F)C(F)(F)C(F)(F)F)cc2Cl)cccc1N(C)C(=O)c1ccc(F)c(C(F)(F)F)c1 (centres unmarked) [D16] |  | at least 80% | at least 80% | at least 80%
COc1c(C(=O)Nc2c(Cl)cc(C(F)(C(F)(F)F)C(F)(F)C(F)(F)F)cc2Cl)cccc1N(C)C(=O)c1ccc(F)cc1F (centres unmarked) [D24] |  | at least 80% | at least 80% | 
CCN(C(=O)c1ccccc1C(F)(F)F)c1cccc(C(=O)Nc2c(Cl)cc(C(F)(C(F)(F)F)C(F)(F)C(F)(F)F)cc2Cl)c1OC (centres unmarked) [D40] | at least 80% | at least 80% | at least 80% | 
COc1c(NC(=O)c2cc(C(F)(F)F)ccc2F)cccc1C(=O)Nc1c(Cl)cc(C(F)(C(F)(F)F)C(F)(F)F)cc1Cl [E23] |  | at least 80% |  | 
COc1c(NC(=O)c2ccc(F)c(C(F)(F)F)c2)cccc1C(=O)Nc1c(C)cc(C(F)(C(F)(F)F)C(F)(F)C(F)(F)F)cc1C (centres unmarked) [F6] | at least 80% | at least 80% | at least 80% | 
